These are yes or no findings as the source states them, for the method shown. Binding seen in cells or lysates may run through a third protein. Some entries that bind do so weakly or less than the wild type. For part of these data: Sequences can lack the tags named with a protein.
How the values were obtained:
[1] = molecular target: Tim44 with C-terminal di-HA tag (Tim44-HA) (Trichomonas vaginalis) (UniProt A2F7V1); assay: co-IP; hydrogenosomes of strains co-expressing an HA-tagged bait and TvTim22-V5, solubilised with 1% Triton X-100 at 1 mg/ml protein; anti-HA Dynabeads; immunoblot with anti-HA, anti-V5 and anti-Sam50
[2] = molecular target: T1, AAC1 (Hmp31) with C-terminal di-HA tag (AAC1-HA) (Trichomonas vaginalis); assay: as above
T1 sequence: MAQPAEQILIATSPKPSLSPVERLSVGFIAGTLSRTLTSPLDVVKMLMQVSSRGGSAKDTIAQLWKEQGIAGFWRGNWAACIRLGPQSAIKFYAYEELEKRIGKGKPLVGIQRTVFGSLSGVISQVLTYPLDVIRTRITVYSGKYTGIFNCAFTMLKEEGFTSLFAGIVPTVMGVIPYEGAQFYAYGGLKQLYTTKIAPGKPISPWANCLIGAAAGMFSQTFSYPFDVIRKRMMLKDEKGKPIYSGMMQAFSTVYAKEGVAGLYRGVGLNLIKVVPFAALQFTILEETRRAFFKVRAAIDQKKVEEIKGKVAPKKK

Sequences of proteins named here, by UniProt entry; tags and fusion partners are left off.
UniProt A2F7V1: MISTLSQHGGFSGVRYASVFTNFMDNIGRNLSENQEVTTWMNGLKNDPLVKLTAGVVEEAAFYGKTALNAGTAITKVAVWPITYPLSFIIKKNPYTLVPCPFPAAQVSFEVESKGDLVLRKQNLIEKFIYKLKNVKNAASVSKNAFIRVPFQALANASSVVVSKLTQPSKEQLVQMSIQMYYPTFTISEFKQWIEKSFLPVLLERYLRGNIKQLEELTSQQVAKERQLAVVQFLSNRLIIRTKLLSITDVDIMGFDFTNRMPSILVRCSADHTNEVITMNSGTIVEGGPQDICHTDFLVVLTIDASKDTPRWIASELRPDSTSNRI
UniProt A2DIG2: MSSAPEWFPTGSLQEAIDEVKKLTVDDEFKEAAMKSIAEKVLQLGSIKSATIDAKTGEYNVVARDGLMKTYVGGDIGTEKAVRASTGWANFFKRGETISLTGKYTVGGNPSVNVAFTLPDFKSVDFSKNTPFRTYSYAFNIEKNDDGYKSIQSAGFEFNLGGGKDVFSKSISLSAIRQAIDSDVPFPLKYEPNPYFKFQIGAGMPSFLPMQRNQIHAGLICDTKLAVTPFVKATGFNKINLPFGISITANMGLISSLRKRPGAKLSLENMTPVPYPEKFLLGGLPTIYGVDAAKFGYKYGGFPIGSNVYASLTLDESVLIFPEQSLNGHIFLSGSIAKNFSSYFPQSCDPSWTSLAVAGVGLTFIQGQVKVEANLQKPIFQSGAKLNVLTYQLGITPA
UniProt A2DDM1: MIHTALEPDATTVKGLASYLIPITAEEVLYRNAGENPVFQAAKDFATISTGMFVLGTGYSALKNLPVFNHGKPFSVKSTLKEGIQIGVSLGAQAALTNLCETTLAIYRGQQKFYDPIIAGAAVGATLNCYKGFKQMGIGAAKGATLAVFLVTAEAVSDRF

Substance	binding [1]	binding [2]
Sam50 (endogenous) (from UniProt A2DIG2 1-398)	no binding	–
TvTim22 with C-terminal di-V5 tag (TvTim22-V5) (from UniProt A2DDM1 1-160)	binds	binds
